Results deposited as PubChem BioAssay AID1224830 (NIAID, 2016).
Test: 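Regulators of TLR4 signalling towards TNF-alpha in macrophage-like cells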 (primary screen). System: human THP-1 monocytic leukaemia cells, TNF dual-luciferase reporter clone, PMA-differentiated to macrophage-like cells. Reagent: siRNA pool against human genes, 50 nM. Time to read-out: LPS for 4 h, given about 3 days after siRNA transfection. Conditions: bacterial LPS (TLR4 ligand), 10 ng/ml. Measured: 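TNF firefly reporter luminescence divided by renilla, normalised to the plate median, then turned into a robust z-score for each replicate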. Scale: TNF reporter robust z-score: higher = stronger TNF reporter response to LPS. Rule for the call: 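a well is active when its z-score exceeds 2.8 or falls below -1.5; control wells carry no call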.
Shown is one part, drawn at random, of about 18,000 deposited reagents. Of all reagents, about 2,900 (16%) were called active. 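Calls are made per well; low scores hint the gene aids the LPS response, high scores that it dampens it.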 A number with no mark means an inactive call. Repeated entries: four replicate wells of each siRNA pool. Reagent sequences are not shown.

no.	target gene	TNF reporter robust z-score
1	CHST6 (carbohydrate sulfotransferase 6)	1.52
2	CHST6 (carbohydrate sulfotransferase 6)	-0.03
3	CHST6 (carbohydrate sulfotransferase 6)	1.26
4	CHST6 (carbohydrate sulfotransferase 6)	2.57
5	ABCA9 (ATP binding cassette subfamily A member 9)	0.87
6	ABCA9 (ATP binding cassette subfamily A member 9)	0.92
7	ABCA9 (ATP binding cassette subfamily A member 9)	0.22
8	ABCA9 (ATP binding cassette subfamily A member 9)	1.31
9	MFN2 (mitofusin 2)	-0.09
10	MFN2 (mitofusin 2)	0.16
11	MFN2 (mitofusin 2)	-0.41
12	MFN2 (mitofusin 2)	0.56
13	KLK6 (kallikrein related peptidase 6)	1.2
14	KLK6 (kallikrein related peptidase 6)	6.6 (active)
15	KLK6 (kallikrein related peptidase 6)	2.07
16	KLK6 (kallikrein related peptidase 6)	5.34 (active)
17	RASGRF2 (Ras protein specific guanine nucleotide releasing factor 2)	-1.12
18	RASGRF2 (Ras protein specific guanine nucleotide releasing factor 2)	-0.74
19	RASGRF2 (Ras protein specific guanine nucleotide releasing factor 2)	0.53
20	RASGRF2 (Ras protein specific guanine nucleotide releasing factor 2)	1.06
21	KANSL3 (KAT8 regulatory NSL complex subunit 3)	0.06
22	KANSL3 (KAT8 regulatory NSL complex subunit 3)	0.08
23	KANSL3 (KAT8 regulatory NSL complex subunit 3)	0.56
24	KANSL3 (KAT8 regulatory NSL complex subunit 3)	0.3
25	MYBPH (myosin binding protein H)	0.18
26	MYBPH (myosin binding protein H)	-0.1
27	MYBPH (myosin binding protein H)	0.86
28	MYBPH (myosin binding protein H)	1.44
29	ASB15 (ankyrin repeat and SOCS box containing 15)	1.61
30	ASB15 (ankyrin repeat and SOCS box containing 15)	0.44
31	ASB15 (ankyrin repeat and SOCS box containing 15)	-0.69
32	ASB15 (ankyrin repeat and SOCS box containing 15)	0.08
33	ZNF354A (zinc finger protein 354A)	0.93
34	ZNF354A (zinc finger protein 354A)	0.85
35	ZNF354A (zinc finger protein 354A)	1.22
36	ZNF354A (zinc finger protein 354A)	1.3
37	KIAA2012	0.19
38	KIAA2012	-0.71
39	KIAA2012	0.32
40	KIAA2012	0.45
41	CSF3 (colony stimulating factor 3)	0.09
42	CSF3 (colony stimulating factor 3)	0.13
43	CSF3 (colony stimulating factor 3)	-0.18
44	CSF3 (colony stimulating factor 3)	1.17
45	SLC35F6	0.95
46	SLC35F6	1.27
47	SLC35F6	0.04
48	SLC35F6	0.36
49	NFATC4 (nuclear factor of activated T cells 4)	-1
50	NFATC4 (nuclear factor of activated T cells 4)	-1.31
51	NFATC4 (nuclear factor of activated T cells 4)	2.06
52	NFATC4 (nuclear factor of activated T cells 4)	0.34
53	WASF3 (WASP family member 3)	2.58
54	WASF3 (WASP family member 3)	-0.01
55	WASF3 (WASP family member 3)	0.27
56	WASF3 (WASP family member 3)	1.96
57	MLN (motilin)	1.27
58	MLN (motilin)	2.28
59	MLN (motilin)	-0.65
60	MLN (motilin)	-2.04 (active)
61	MCM8	-1.1
62	MCM8	-0.4
63	MCM8	-0.81
64	MCM8	-0.83
65	STK32A (serine/threonine kinase 32A)	0.48
66	STK32A (serine/threonine kinase 32A)	1.05
67	STK32A (serine/threonine kinase 32A)	0.34
68	STK32A (serine/threonine kinase 32A)	0.97
69	ROPN1L (rhophilin associated tail protein 1 like)	-0.28
70	ROPN1L (rhophilin associated tail protein 1 like)	-0.34
71	ROPN1L (rhophilin associated tail protein 1 like)	-0.51
72	ROPN1L (rhophilin associated tail protein 1 like)	-0.37
73	FBF1 (Fas binding factor 1)	0
74	FBF1 (Fas binding factor 1)	-0.15
75	FBF1 (Fas binding factor 1)	0.35
76	FBF1 (Fas binding factor 1)	0.96
77	PICALM (phosphatidylinositol binding clathrin assembly protein)	0.49
78	PICALM (phosphatidylinositol binding clathrin assembly protein)	0.48
79	PICALM (phosphatidylinositol binding clathrin assembly protein)	0.79

24 neighbouring reagents from above:
no.	target gene	TNF reporter robust z-score
22	KANSL3 (KAT8 regulatory NSL complex subunit 3)	0.08
23	KANSL3 (KAT8 regulatory NSL complex subunit 3)	0.56
24	KANSL3 (KAT8 regulatory NSL complex subunit 3)	0.3
25	MYBPH (myosin binding protein H)	0.18
26	MYBPH (myosin binding protein H)	-0.1
27	MYBPH (myosin binding protein H)	0.86
28	MYBPH (myosin binding protein H)	1.44
29	ASB15 (ankyrin repeat and SOCS box containing 15)	1.61
30	ASB15 (ankyrin repeat and SOCS box containing 15)	0.44
31	ASB15 (ankyrin repeat and SOCS box containing 15)	-0.69
32	ASB15 (ankyrin repeat and SOCS box containing 15)	0.08
33	ZNF354A (zinc finger protein 354A)	0.93
34	ZNF354A (zinc finger protein 354A)	0.85
35	ZNF354A (zinc finger protein 354A)	1.22
36	ZNF354A (zinc finger protein 354A)	1.3
37	KIAA2012	0.19
38	KIAA2012	-0.71
39	KIAA2012	0.32
40	KIAA2012	0.45
41	CSF3 (colony stimulating factor 3)	0.09
42	CSF3 (colony stimulating factor 3)	0.13
43	CSF3 (colony stimulating factor 3)	-0.18
44	CSF3 (colony stimulating factor 3)	1.17
45	SLC35F6	0.95

More results follow:
no.	target gene	TNF reporter robust z-score
80	TMEM38A (transmembrane protein 38A)	0
81	TMEM38A (transmembrane protein 38A)	-0.13
82	TMEM38A (transmembrane protein 38A)	0.06
83	TMEM38A (transmembrane protein 38A)	0.97
84	CEBPG (CCAAT enhancer binding protein gamma)	-0.94
85	CEBPG (CCAAT enhancer binding protein gamma)	0.05
86	CEBPG (CCAAT enhancer binding protein gamma)	-0.5
87	CEBPG (CCAAT enhancer binding protein gamma)	-0.49
88	LYZ (lysozyme)	2.71
89	LYZ (lysozyme)	1.41
90	LYZ (lysozyme)	0.48
91	LYZ (lysozyme)	5.32 (active)
92	CLUL1 (clusterin like 1)	5.48 (active)
93	CLUL1 (clusterin like 1)	0.01
94	CLUL1 (clusterin like 1)	0.94
95	CLUL1 (clusterin like 1)	1.5
96	IFT70A (intraflagellar transport 70A)	1.22
97	IFT70A (intraflagellar transport 70A)	1.08
98	IFT70A (intraflagellar transport 70A)	1.54
99	IFT70A (intraflagellar transport 70A)	-0.04
100	TNRC6C (trinucleotide repeat containing adaptor 6C)	1.78
101	TNRC6C (trinucleotide repeat containing adaptor 6C)	0.04
102	TNRC6C (trinucleotide repeat containing adaptor 6C)	-0.71
103	TNRC6C (trinucleotide repeat containing adaptor 6C)	-0.77
104	TPBG (trophoblast glycoprotein)	0.38
105	TPBG (trophoblast glycoprotein)	0
106	TPBG (trophoblast glycoprotein)	-0.86
107	TPBG (trophoblast glycoprotein)	0.04
108	ASMT (acetylserotonin O-methyltransferase)	0.86
109	ASMT (acetylserotonin O-methyltransferase)	0.5
110	ASMT (acetylserotonin O-methyltransferase)	1.2
111	ASMT (acetylserotonin O-methyltransferase)	0.9
112	FXYD7 (FXYD domain containing ion transport regulator 7)	-1.33
113	FXYD7 (FXYD domain containing ion transport regulator 7)	-1.14
114	FXYD7 (FXYD domain containing ion transport regulator 7)	-1.37
115	FXYD7 (FXYD domain containing ion transport regulator 7)	-1.35
116	LRRC55 (leucine rich repeat containing 55)	0.19
117	LRRC55 (leucine rich repeat containing 55)	-0.3
118	LRRC55 (leucine rich repeat containing 55)	-0.4
119	LRRC55 (leucine rich repeat containing 55)	-0.53
120	HLA-DQA2 (major histocompatibility complex, class II, DQ alpha 2)	-1.97 (active)
121	HLA-DQA2 (major histocompatibility complex, class II, DQ alpha 2)	-1.34
122	HLA-DQA2 (major histocompatibility complex, class II, DQ alpha 2)	-1.48
123	HLA-DQA2 (major histocompatibility complex, class II, DQ alpha 2)	-1.85 (active)
124	MCU (mitochondrial calcium uniporter)	-0.32
125	MCU (mitochondrial calcium uniporter)	0.32
126	MCU (mitochondrial calcium uniporter)	0.12
127	MCU (mitochondrial calcium uniporter)	0.04
128	KLHDC10 (kelch domain containing 10)	4.01 (active)
129	KLHDC10 (kelch domain containing 10)	0.7
130	KLHDC10 (kelch domain containing 10)	0.17
131	KLHDC10 (kelch domain containing 10)	1.76
132	FBN2 (fibrillin 2)	1.51
133	FBN2 (fibrillin 2)	1.56
134	FBN2 (fibrillin 2)	1.28
135	FBN2 (fibrillin 2)	1.2
136	MACO1 (macoilin 1)	1.65
137	MACO1 (macoilin 1)	1.43
138	MACO1 (macoilin 1)	0.48
139	MACO1 (macoilin 1)	2.04
140	LYPD6B (LY6/PLAUR domain containing 6B)	0.23
141	LYPD6B (LY6/PLAUR domain containing 6B)	0.82
142	LYPD6B (LY6/PLAUR domain containing 6B)	-0.58
143	LYPD6B (LY6/PLAUR domain containing 6B)	-0.47
